Changes are numbered by the printed parent chain. No constants are given. Whether binding was seen depends on the method and setting. Binding seen in cells or lysates may run through a third protein. Some binding calls cover weakened binding; strength is not graded here. Tags and fused reporters may be left off the sequences shown.

Sequences of proteins named here, by UniProt entry; tags and fusion partners are left off.
UniProt Q8WUM4: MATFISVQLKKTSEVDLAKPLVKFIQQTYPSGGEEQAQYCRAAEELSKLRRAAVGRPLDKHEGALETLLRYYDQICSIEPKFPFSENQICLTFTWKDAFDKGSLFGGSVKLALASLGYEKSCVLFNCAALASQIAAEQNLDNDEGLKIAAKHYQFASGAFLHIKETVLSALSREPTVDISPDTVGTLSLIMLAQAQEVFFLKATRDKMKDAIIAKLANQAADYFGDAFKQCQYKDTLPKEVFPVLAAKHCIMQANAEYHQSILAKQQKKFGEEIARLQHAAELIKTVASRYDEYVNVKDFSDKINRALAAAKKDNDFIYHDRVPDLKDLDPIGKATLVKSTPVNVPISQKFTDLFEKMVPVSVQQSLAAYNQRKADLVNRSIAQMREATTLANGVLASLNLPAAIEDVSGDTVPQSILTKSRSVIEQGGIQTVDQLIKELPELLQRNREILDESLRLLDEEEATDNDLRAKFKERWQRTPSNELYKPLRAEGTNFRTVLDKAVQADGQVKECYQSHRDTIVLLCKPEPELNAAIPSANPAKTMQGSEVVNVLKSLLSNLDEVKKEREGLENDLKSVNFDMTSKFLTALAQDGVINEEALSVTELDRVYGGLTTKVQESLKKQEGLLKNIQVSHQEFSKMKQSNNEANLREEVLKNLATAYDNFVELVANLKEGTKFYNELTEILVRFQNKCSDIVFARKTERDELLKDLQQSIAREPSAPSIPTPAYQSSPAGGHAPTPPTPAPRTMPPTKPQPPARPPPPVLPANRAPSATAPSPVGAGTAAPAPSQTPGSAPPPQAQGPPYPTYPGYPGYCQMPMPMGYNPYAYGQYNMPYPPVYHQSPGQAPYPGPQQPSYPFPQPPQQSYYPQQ

Data on two molecules can be found in PMC10895845.

The target in this assay is His-ALIX (UniProt Q8WUM4). The experiment in a line: co-IP; cells (HEK293T by the text, SCs by the legend) transfected with His-ALIX and WT-VMP1 or MT-VMP1; immunoprecipitation with anti-His antibody, western blot. In general terms: A western blot detects proteins with antibodies after separation by electrophoresis.

B1: WT-VMP1-flag (flag-tagged wild-type Vacuole Membrane Protein 1) (protein, UniProt Q96GC9 1-406)
chain: MAENGKNCDQRRVAMNKEHHNGNFTDPSSVNEKKRREREERQNIVLWRQPLITLQYFSLEILVILKEWTSKLWHRQSIVVSFLLLLAVLIATYYVEGVHQQYVQRIEKQFLLYAYWIGLGILSSVGLGTGLHTFLLYLGPHIASVTLAAYECNSVNFPEPPYPDQIICPDEEGTEGTISLWSIISKVRIEACMWGIGTAIGELPPYFMARAARLSGAEPDDEEYQEFEEMLEHAESAQDFASRAKLAVQKLVQKVGFFGILACASIPNPLFDLAGITCGHFLVPFWTFFGATLIGKAIIKMHIQKIFVIITFSKHIVEQMVAFIGAVPGIGPSLQKPFQEYLEAQRQKLHHKSEMGTPQGENWLSWMFEKLVVVMVCYFILSIINSMAQSYAKRIQQRLNSEEKTK
modifications: S-palmitoylated at cysteine 263 and 278 (in cells, by ZDHHC3)
As for B1, the binding entry is “binds”.

B2: MT-VMP1-flag (VMP1 C263, 278S palmitoylation-site mutant, flag-tagged) (protein, UniProt Q96GC9 1-406)
chain: B1 chain with C263S, C278S
With B2, the binding entry was “no binding”.
